Data taken from PubChem BioAssay AID624297 (National Center for Advancing Translational Sciences (NCATS), 2012).
Where “and” joins values, the source holds several entries; their conditions need not be identical. Identical values can stand only once. About 6,200 (1.8%) of roughly 340,000 compounds were called active. Inconclusive results, whose numbers are uncertain, are shown with a selection of clear calls. Calls come from the whole dose curve; as a rule, active = well fitted activation curve with a large enough effect; inconclusive = small, poorly fitted or top-dose-only effect; inactive = no such curve, though single readings can be large or run the other way. Potencies of inconclusive entries are doubtful fits and often do not repeat.

test: A quantitative high throughput screen for small molecules that induce DNA re-replication in SW480 colon adenocarcinoma cells.; note: nearly all actives have a fitted effect of over 55% in size; for re-replication activation: % of control where 0% means no effect; details: Hoechst DNA content imaging, 48 h; re-replication activation: at 46.1 µM (top of the series) unless noted
In short: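 Quantitative HTS format with DMSO vehicle controls; 48 hr drug incubation at 37 C, then 40 min Hoechst staining and scanning imager measurement at 405 nm excitation.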
Potency is the fitted concentration of half-maximal effect.

Row | Compound | Potency | re-replication activation
1 | CCCNC(=O)c1ccc(N2CCC3(CC2)CC(c2ccccc2)=NO3)c(NC(=O)Cc2ccc(F)cc2)c1 | inactive | –
2 | Cc1ccc(Cl)cc1N1CCN(C(=O)C2CCN(S(=O)(=O)c3c(C)nn(C)c3C)CC2)CC1 | inconclusive: 29.1 µM [activator, single point] | –
3 | CC(=O)c1ccc(OC(=O)CCc2ccccc2)cc1 | – | inconclusive: 52.9% [activator]
4 | CCN(CC(=O)Nc1ccc(NC(C)=O)cc1)C(=O)C1CCN(C(=O)c2ccccc2C)CC1 | active: 3.66 µM | –
5 | CC1=NN(C(=O)c2ccc(Cl)cc2)C(O)(c2ccccc2)C1 (configuration not stated) | inconclusive: 29.1 µM [activator, single point] | –
6 | Cc1ncoc1C(=O)N1CCc2c([nH]c3ccccc23)C1C1CCCCC1 (configuration not stated) | inconclusive: 29.1 µM [activator, single point] | –
7 | Cc1ccc(NC(=O)CN(C)C(=O)c2cccc(S(=O)(=O)N3CCCC3)c2)cc1 | inconclusive: 16.4 µM [activator, single point] | –
8 | Cc1ccc(NC(=O)C2C3CCC(O3)C2C(=O)O)c(Br)c1 (configuration not stated) | inconclusive: 32.6 µM [activator, partial curve, poor fit] | –
9 | CN(C)c1ccc2c3c(ccc(N(C)C)c13)C(=O)OC2 | inconclusive: 6.51 µM [activator, single point] | –
10 | CCCCSCCCNC(=O)c1ccc2c(c1)N(CC)C(=O)c1ccccc1S2=O (configuration not stated) | inconclusive: 23.1 µM [activator, single point] | –
11 | Cc1ccc(NC(=O)c2cc(S(=O)(=O)NCCC3=CCCCC3)ccc2F)cc1F | inconclusive: 0.164 µM [activator, full curve, poor fit] | –
12 | C=C1c2c(Cl)ccc(O)c2C(O)=C2C(=O)[C@@]3(O)C(O)=C(C(N)=O)C(=O)[C@@H](N(C)C)[C@@H]3[C@@H](O)[C@H]12 | inactive | –
13 | Nc1ccn([C@@H]2O[C@H](CO)[C@@H](O)C2O)c(=O)n1 (some centres not stated) | inconclusive: 168 nM [activator, full curve] and inconclusive: 184 nM [activator, full curve, poor fit] | –
14 | CN1CCN(CCCNc2nc3ccccc3c3nc(-c4ccccc4)nn23)CC1 | inconclusive: 18.4 µM [activator, single point] | –
15 | Cn1c(SCc2ccc(Cl)cc2)nnc1-c1ccc2nonc2c1 | inactive | –
16 | Cc1cc(=O)oc2cc(NC(=O)c3c(Cl)cnn3C)ccc12 | inconclusive: 0.259 µM [activator, full curve] | –
17 | COC(=O)c1ccc(N2CCN(C(C)=O)CC2)c(NC(=O)COc2ccccc2C)c1 | inactive | –
18 | COc1c(C)cc(C(=O)C2CCCN(Cc3cccc4nccnc34)C2)cc1C (configuration not stated) | inactive | –
19 | COc1ccc(COc2ccccc2C(=O)NCc2ccccc2)cc1F | inactive | –
20 | COc1ccc(S(=O)(=O)N2CCOCC2)cc1NC(=O)COC(=O)c1[nH]c(C)c(C(C)=O)c1C | inactive | –
21 | Cc1noc(C)c1COc1ccc(C(=O)NNC(=O)c2ccccc2O)cc1 | inconclusive: 0.0651 µM [activator, full curve, poor fit] | –

Row | Compound | Potency | re-replication activation
22 | CC[C@]12c3[nH]c4ccc(OC)cc4c3CCN1C(=O)C(CC(=O)NCC13CC4CC(CC(C4)C1)C3)C[C@@H]2C(=O)N1CCN(C(=O)c2ccco2)CC1 (some centres not stated) | inconclusive: 29.1 µM [activator, single point] | –
23 | Cc1ccc(-n2c(SCC(N)=O)nc(O)cc2=O)cc1 | – | inconclusive: -700% [activator]
24 | COc1cc(C(=O)NCc2nnc(SCC(=O)Nc3nc4ccccc4s3)o2)cc(OC)c1OC | inconclusive: 1.3 µM [activator, partial curve] | –
25 | CC(=O)c1ccc(Nc2ccc(-c3ccccc3F)nn2)cc1 | inconclusive: 29.1 µM [activator, single point] | –
26 | CCc1ccccc1NC(=O)c1ccc(-c2csc(C)n2)cc1 | inactive | –
27 | O=S1(=O)CC=C(CSC(=S)NC2CCS(=O)(=O)C2)C1 (configuration not stated) | inconclusive: 25.9 µM [activator, single point] | –
28 | CCCCCCCNc1nc(Cl)nc(NCCO)n1 | inconclusive: 18.4 µM [activator, partial curve, poor fit] | –
29 | Cc1[nH]c2ccccc2c1C(=O)C(C)OC(=O)c1ccc([N+](=O)[O-])o1 (configuration not stated) | inconclusive: 5.8 µM [activator, full curve] | –
30 | Cc1ccc(S(=O)(=O)c2cn(C)c3cc(N4CCN(C)CC4)c(F)cc3c2=O)c(C)c1 | active: 1.64 µM | –
31 | O=C(COC(=O)c1ccc(O)cc1O)Nc1ccc(Cl)cn1 | inconclusive: 18.4 µM [activator, single point] | –
32 | Cc1cc(Nc2nc3ccccc3nc2Cl)n(-c2ccccc2)n1 | inconclusive: 29.1 µM [activator, single point] | –
33 | O=C(Nc1ncc(Cc2ccc(SC(F)F)cc2)s1)c1ccccc1 | active: 6.51 µM | –
34 | CCOC(=O)C1CCN(S(=O)(=O)c2ccc(-n3cnnn3)c(C)c2)CC1 | inconclusive: 29.1 µM [activator, single point] | –
35 | O=c1[nH]c(C2CCN(S(=O)(=O)c3ccc4c(c3)OCCO4)CC2)nc2c1nnn2Cc1cccc(F)c1 | inconclusive: 29.1 µM [activator, single point] | –
36 | COc1ccc(C2c3cc(OC)c(OC)cc3CCN2S(C)(=O)=O)cc1OC (configuration not stated) | inconclusive: 0.92 µM [activator, full curve, poor fit] | –
37 | CCCCn1nnnc1SCC(=O)c1cc(Cl)ccc1OC | inactive | –
38 | COC(=O)c1cc2c(=O)n3ccccc3nc2n(Cc2cccnc2)c1=N | inconclusive: 8.2 µM [activator, partial curve] | –
39 | Clc1ccccc1Cc1noc(CN2CCN(Cc3ccccn3)CC2)n1 | inactive | –
40 | CCOc1ccc(NS(=O)(=O)c2ccc(C(=O)NCC(c3cccs3)N3CCOCC3)cc2)cc1 (configuration not stated) | inactive | –
41 | CC(C)N1CCC(N2CCN(CCCc3ccccc3)CC2CCO)CC1 (configuration not stated) | inconclusive: 0.58 µM [activator, full curve, poor fit] | –
42 | O=C(N/N=C/C(Br)=C\c1ccccc1)c1ccco1 | inconclusive: 18.4 µM [activator, partial curve, poor fit] | –
